Laboratory results: PubChem BioAssay AID1259327 (Drosophila RNAi Screening Center, 2017)
This is one part, drawn at random, of about 3,100 reagents. Of all reagents, 378 (12%) were called active. 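Hits include both directions; z-score sign shows ATP rise or fall; raw luminescence values are not plate-normalised.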 Reagents against one gene are numbered here. The record does not give: the amount of reagent.

- Test: 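Baseline ATP after transmembrane-protein gene knock-down with water vehicle only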
- Cells: Drosophila S2R+ cells
- Reagent: long dsRNA against Drosophila genes
- Duration: 5 days (water added on day 4, read one day later)
- Challenge: water added as vehicle, no metal, one day before read-out
- Detection: 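Total ATP measured by luciferase light, scaled to plate mean, duplicates averaged, then z-scored across plates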
- Scale: ATP z-score: higher = more total ATP than typical wells; ATP luminescence: higher = more total ATP
- Call rule: 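a hit is any knock-down whose absolute ATP z-score is greater than 1.5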
- Calls: active = hit: ATP up or down; inactive = no clear ATP change

What is on record for Pss #1?
ATP z-score, duplicate mean: -0.777; ATP luminescence, replicate 1 (RLU): 8.14e5; ATP luminescence, replicate 2 (RLU): 7.74e5; Call: inactive

How did the screen score Pss #2?
ATP z-score, duplicate mean: 0.486; ATP luminescence, replicate 1 (RLU): 5.05e5; ATP luminescence, replicate 2 (RLU): 4.66e5; Call: inactive

With COX4L #1, what was measured?
ATP z-score, duplicate mean: -0.184; ATP luminescence, replicate 1 (RLU): 6.98e5; ATP luminescence, replicate 2 (RLU): 7.15e5; Call: inactive

For COX4L #2, what was measured?
ATP z-score, duplicate mean: 0.235; ATP luminescence, replicate 1 (RLU): 5.09e5; ATP luminescence, replicate 2 (RLU): 4.53e5; Call: inactive

How did the screen score Sb #1?
ATP z-score, duplicate mean: -0.229; ATP luminescence, replicate 1 (RLU): 3.07e5; ATP luminescence, replicate 2 (RLU): 6.91e5; Call: inactive

What did the screen give for Sb #2?
ATP z-score, duplicate mean: 0.6; ATP luminescence, replicate 1 (RLU): 9.60e5; ATP luminescence, replicate 2 (RLU): 8.36e5; Call: inactive

What did the screen give for Dop1R1 #1?
ATP z-score, duplicate mean: -0.0729; ATP luminescence, replicate 1 (RLU): 7.40e5; ATP luminescence, replicate 2 (RLU): 7.29e5; Call: inactive

With Dop1R1 #2, what was measured?
ATP z-score, duplicate mean: 0.0677; ATP luminescence, replicate 1 (RLU): 3.12e5; ATP luminescence, replicate 2 (RLU): 7.45e5; Call: inactive

Which result is listed for Dop1R1 #3?
ATP z-score, duplicate mean: -0.202; ATP luminescence, replicate 1 (RLU): 9.13e5; ATP luminescence, replicate 2 (RLU): 7.37e5; Call: inactive

Which result is listed for CG14195 #1?
ATP z-score, duplicate mean: -0.443; ATP luminescence, replicate 1 (RLU): 6.39e5; ATP luminescence, replicate 2 (RLU): 7.54e5; Call: inactive

Which result is listed for CG14195 #2?
ATP z-score, duplicate mean: 0.18; ATP luminescence, replicate 1 (RLU): 5.08e5; ATP luminescence, replicate 2 (RLU): 7.02e5; Call: inactive

What is on record for ppk14 #1?
ATP z-score, duplicate mean: 1.35; ATP luminescence, replicate 1 (RLU): 8.35e5; ATP luminescence, replicate 2 (RLU): 9.04e5; Call: inactive

How did the screen score ppk14 #2?
ATP z-score, duplicate mean: 0.311; ATP luminescence, replicate 1 (RLU): 5.69e5; ATP luminescence, replicate 2 (RLU): 4.28e5; Call: inactive

For ru #1, what does the deposit list?
ATP z-score, duplicate mean: -0.509; ATP luminescence, replicate 1 (RLU): 4.81e5; ATP luminescence, replicate 2 (RLU): 6.67e5; Call: inactive

For ru #2, what does the deposit list?
ATP z-score, duplicate mean: -0.0757; ATP luminescence, replicate 1 (RLU): 8.84e5; ATP luminescence, replicate 2 (RLU): 7.50e5; Call: inactive

With Oatp74D #1, how do the results read?
ATP z-score, duplicate mean: 0.336; ATP luminescence, replicate 1 (RLU): 5.71e5; ATP luminescence, replicate 2 (RLU): 8.20e5; Call: inactive

How did the screen score Oatp74D #2?
ATP z-score, duplicate mean: -0.711; ATP luminescence, replicate 1 (RLU): 6.84e5; ATP luminescence, replicate 2 (RLU): 6.25e5; Call: inactive

2 entries from above, set out differently.
Gene	reagent no.	ATP z-score, duplicate mean	ATP luminescence, replicate 1 (RLU)	ATP luminescence, replicate 2 (RLU)	Call
ppk14	2	0.311	5.69e5	4.28e5	inactive
ru	1	-0.509	4.81e5	6.67e5	inactive
